Measured data: PubChem BioAssay AID1259289 (Sanger Institute, 2017)
This is a random part of 794 reagents. Of all reagents, 16 (2%) are marked active. 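Active marks cell loss from silencing alone; drug synergy shows only in the synergy scores, not the calls.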 Unmarked entries are inactive. Not all columns of the deposit are shown. Not stated in the record: the amount of reagent, the time to read-out.

Test: 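Find kinases whose loss adds to targeted drugs in killing bowel cancer cells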 (primary screen)
Cell system: human LS513 colorectal cancer cells
Knock-down reagent: siRNA pool against human genes
Challenge: anchor drug BYL719 at 1 µM, cetuximab at 5 µg/ml or trametinib at 10 nM, or DMSO vehicle alone; exposure time not given
Measurement: 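Cell survival as a fraction of the non-targeting pool, replicate means; robust z-score for silencing alone under DMSO; synergy score for each of BYL719, cetuximab and trametinib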
Direction: robust z-score, siRNA alone (DMSO): higher = more viable cells; strongly negative means essential
Active means: 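a gene counts as active if its DMSO-only robust z-score falls under -3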
Calls: active = essential (knock-down alone); inactive = not essential

The first 3 entries, to show the layout:
ITPK1
- robust z-score, siRNA alone (DMSO): 0.561

CERT1
- robust z-score, siRNA alone (DMSO): 0.561

MYO3A
- robust z-score, siRNA alone (DMSO): -0.408

Main list, repeating the preview:
ITPK1
- robust z-score, siRNA alone (DMSO): 0.561

CERT1
- robust z-score, siRNA alone (DMSO): 0.561

MYO3A
- robust z-score, siRNA alone (DMSO): -0.408

PRKCE
- robust z-score, siRNA alone (DMSO): 0.373

CLK2
- robust z-score, siRNA alone (DMSO): 0.561

UCKL1
- robust z-score, siRNA alone (DMSO): 0.561

GRK6
- robust z-score, siRNA alone (DMSO): -0.912

CHUK
- robust z-score, siRNA alone (DMSO): 0.561

EIF2AK4
- robust z-score, siRNA alone (DMSO): 0.561

EPHA8
- robust z-score, siRNA alone (DMSO): 0.561

PIP4K2A
- robust z-score, siRNA alone (DMSO): 0.561

LMTK1
- robust z-score, siRNA alone (DMSO): -1.16

DAPK2
- robust z-score, siRNA alone (DMSO): 0.561

DNMT3A
- robust z-score, siRNA alone (DMSO): 0.503

CALM2
- robust z-score, siRNA alone (DMSO): -0.912

TPD52L3
- robust z-score, siRNA alone (DMSO): 0.561

ARID1A
- robust z-score, siRNA alone (DMSO): 0.561

ABL1
- robust z-score, siRNA alone (DMSO): 0.561

RAF1
- robust z-score, siRNA alone (DMSO): -1.82

GRK2
- robust z-score, siRNA alone (DMSO): 0.561

KCNH2
- robust z-score, siRNA alone (DMSO): -0.359

SYNCRIP
- robust z-score, siRNA alone (DMSO): -1.95

MSR1
- robust z-score, siRNA alone (DMSO): -0.93

FXR1
- robust z-score, siRNA alone (DMSO): 0.561

CAMK2B
- robust z-score, siRNA alone (DMSO): 0.561

CMPK1
- robust z-score, siRNA alone (DMSO): 0.561

CREBBP
- robust z-score, siRNA alone (DMSO): -0.122

MAGI2
- robust z-score, siRNA alone (DMSO): 0.561
